# Test results taken from PubChem BioAssay AID1487 (National Center for Advancing Translational Sciences (NCATS), 2009).
# The list shows a part of the results. Shown are side measurements of this screen, not its main read-out; they come without a call. Most of these compounds were active or inconclusive in the main read-out, so they are no random draw. The note in brackets gives the kind of curve behind each potency; many fits are weak.
# Experiment: qHTS Assay for Modulators of Lamin A Splicing
# Conditions: HeLa LMNA splicing GFP/RFP minigene ratio, 48 h
# Summary of the method: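 Read-out is the ratio of GFP to DsRed2 object intensity, acquired by 488 nm laser-scanning cytometry on HeLa lamin A-EGFP minigene reporter cells. Compound incubation 48 hrs at 37 °C in Opti-MEM with 2% FBS; DMSO 0.5% final.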
# [1] = measured here: GFP splicing reporter channel
# [2] = measured here: RFP viability control channel
Structure (SMILES),AC50 [1],AC50 [2]
COc1c(F)c(F)c(C(=O)Nc2ccc(N3CCN(C(C)=O)CC3)c(Cl)c2)c(F)c1F,"12.6 µM [rising, partial curve]","20 µM [rising, single point]"
COc1ccc(-c2ncn(CCC#N)c2[N+](=O)[O-])cc1,,"11.2 µM [rising, single point]"
C#CC(=O)N(c1ccc(OC)cc1OC)C(C(=O)NC1CCCC1)c1cccs1 (stereo not given),"12.6 µM [falling, partial curve, poor fit]","31.6 µM [falling, single point]"
COc1cc(CN(C)C)cc(C=O)c1O,"12.6 µM [falling, partial curve]","31.6 µM [falling, partial curve, poor fit]"
c1ccc(CN2CCC(Nc3nc(-c4cccnc4)nc4ccccc34)CC2)cc1,"14.1 µM [falling, single point]",
O=C(Nc1ccc(Cl)cc1)N(Cc1cccs1)Cc1cccs1,"35.5 µM [rising, single point]","35.5 µM [rising, single point]"
Cc1ccc(CNC(=O)CSc2nc3ccccc3nc2Cc2ccc(C)cc2)cc1,"8.91 µM [rising, partial curve, poor fit]",
Cc1ccc(NC(=O)CN2C(=O)S/C(=C/c3ccc(-c4cccc(C(=O)O)c4)o3)C2=O)cc1,"0.01 µM [falling, full curve, poor fit]",
O=C(c1ccc(Cl)c(S(=O)(=O)N2CCCC2)c1)N1CCN(c2ccccc2F)CC1,"0.01 µM [falling, full curve, poor fit]",
Cc1c(C(=O)c2ccc(Cl)c(Cl)c2)cnc2cc3c(cc12)OCO3,"35.5 µM [rising, single point]","35.5 µM [rising, single point]"
COc1ccc(S(=O)(=O)NCC(c2ccco2)S(=O)(=O)c2cccs2)cc1F (stereo not given),"10 µM [falling, partial curve, poor fit]",
COc1ccc(-c2nn3c(-c4ccccc4)nnc3s2)cc1OC,"11.2 µM [rising, partial curve]","14.1 µM [rising, partial curve]"
CCn1c(=O)cc(SCC(=O)N2CCN(C(=O)c3ccco3)CC2)c2ccccc21,"10 µM [falling, partial curve, poor fit]",
COc1cc(C2C(C#N)=C(N)N(c3ccc(F)cc3)C3=C2S(=O)(=O)CC3)ccc1O (stereo not given),,"14.1 µM [rising, single point]"
COc1ccc(-c2nc(N)n(C(=O)c3cccs3)n2)cc1,,"1.41 µM [falling, partial curve, poor fit]"
Cc1csc(NC(=O)c2cc3c(s2)-c2ccccc2OC3)n1,,"11.2 µM [rising, partial curve]"
O=C(c1ccccc1)N1CCc2cc(CNS(=O)(=O)c3ccc(Cl)s3)ccc21,,"3.98 µM [falling, partial curve]"
CCc1ccc(N(CC)C(=O)c2ccc3c(Cl)c4c(nc3c2)CCC4)cc1,"12.6 µM [rising, single point]","11.2 µM [rising, partial curve, poor fit]"
Cn1nc(C(F)(F)F)cc1-c1ccc(/C=C(\C#N)C(=O)c2cccc(C(F)(F)F)c2)s1,,"0.01 µM [falling, full curve, poor fit]"
CCOC(=O)C1CCN(c2ncnc3c2[nH]c2cccc(OC)c23)CC1,"7.94 µM [rising, partial curve]",
CN(C)/C=C(\C=N\OCc1ccc(Cl)cc1Cl)C(=O)Nc1ccc(Cl)c(Cl)c1,,"31.6 µM [rising, single point]"
CSc1ccc(/C=N/n2c(C)nnc2C)cc1,,"1.58 µM [rising, partial curve, poor fit]"
CCCOc1ccc(C(=O)NC(=S)Nc2nc(C)c(C(=O)N(C)C)s2)cc1,"11.2 µM [rising, single point]","17.8 µM [rising, single point]"
CN(C)/C=C/C(=O)c1ccc(Br)cc1,"0.0282 µM [falling, full curve, poor fit]","0.0178 µM [falling, full curve, poor fit]"
Oc1c(CN2CCOCC2)cc(COCc2ccccc2)c2cccnc12,,"6.31 µM [rising, partial curve]"
NC[C@@H]1O[C@@H](O[C@H]2[C@H](O)[C@H](O[C@@H]3O[C@H](CO)[C@@H](O)[C@H](N)[C@@H]3O)[C@@H](N)C[C@H]2N)[C@H](N)C[C@@H]1O,"0.1 µM [falling, partial curve, poor fit]",
Cc1ccc(NC(=O)COC(=O)c2cccc3c(=O)c(C)c(-c4ccccc4)oc23)cc1,"11.2 µM [rising, partial curve]","14.1 µM [rising, single point]"
C/C(=N\Nc1ccc(C(F)(F)F)cn1)c1ccc(S(=O)(=O)NCc2ccco2)cc1,"5.62 µM [rising, partial curve]","17.8 µM [rising, partial curve]"

Structure (SMILES),AC50 [1],AC50 [2]
CCOC(=O)N1CCC(n2c(SCC(=O)Nc3ccccc3OC)nc3ccccc3c2=O)CC1,"11.2 µM [rising, partial curve, poor fit]","22.4 µM [rising, partial curve]"
O=C(CC1c2ccccc2Oc2ccccc21)NCc1ccco1,,"31.6 µM [rising, single point]"
CCOC(=O)c1cnc2ccc(OCC)cc2c1NCc1ccccc1,"14.1 µM [rising, single point]","11.2 µM [rising, partial curve]"
COc1ccc(CN2CCN(C(c3ccc(F)cc3)c3ccc(F)cc3)CC2)c(OC)c1OC,,"10 µM [rising, partial curve, poor fit]"
O=S(=O)(Nc1ccc2c(c1)OCCO2)c1ccc(Br)s1,,"35.5 µM [rising, single point]"
CCOc1cc(N2CCOCC2)c(OCC)cc1NC(=O)CN1CCc2ccccc2C1,"10 µM [rising, single point]","11.2 µM [rising, single point]"
CC(C)c1ccc2oc(-c3cc(N)ccc3O)nc2c1,"15.8 µM [rising, single point]","17.8 µM [rising, partial curve]"
CCC(CO)NCC(O)COCc1ccc2c(c1)OCO2 (stereo not given),"7.94 µM [rising, partial curve, poor fit]",
CC(C)(C)C1CCc2[nH]c3ccccc3c(=O)c2C1 (stereo not given),"10 µM [rising, single point]",
O=C(Nc1ccccc1F)C1(c2ccccc2)CC1(Cl)Cl (stereo not given),"4.47 µM [rising, partial curve]",
Cc1ccc(C(=O)N/N=C(/CC(=O)c2cccs2)C(F)(F)F)cc1,,"12.6 µM [rising, partial curve]"
CCc1cccc(NC(=O)Cc2ccc(OC)c(OC)c2)c1,"3.16 µM [rising, full curve, poor fit]","5.01 µM [rising, full curve]"
COc1cc(OC)cc(-c2nc3ccccc3c(=O)n2OC(=O)c2ccc(Br)cc2)c1,,"0.0891 µM [rising, partial curve, poor fit]"
COC(=O)CCCC1=CC2=C(c3ccccc3)C(=O)C(C)(OC(=O)C3CCCC3)C(=O)C2=CN1CCc1ccccn1 (stereo not given),"0.158 µM [falling, full curve, poor fit]",
O=C(c1ccccc1)N1CCN(Cc2c[nH]c3ccccc23)CC1,,"11.2 µM [rising, single point]"
CCn1c2ccccc2c2cc(NC(=O)c3cccc([N+](=O)[O-])c3C)ccc21,,"14.1 µM [rising, single point]"
CC(=O)/C(=N/Nc1cccc(C)c1)N1CCOCC1,,"35.5 µM [rising, single point]"
CCOC(=O)N1CCN(C(=O)CSc2ccc3nnc(-c4cccnc4)n3n2)CC1,,"0.0447 µM [rising, full curve]"
O=C(c1ccc2c(c1)OCO2)C1CCCN(Cc2cc(F)ccc2-n2cccn2)C1 (stereo not given),"17.8 µM [falling, partial curve]",
O=Nc1c(O)n(Cc2c(Cl)cccc2Cl)c2ccccc12,"12.6 µM [rising, single point]","20 µM [rising, single point]"
CCCSC1=N/C(=C\C=C\c2ccco2)C(=O)S1,"0.562 µM [falling, single point]","0.501 µM [falling, partial curve, poor fit]"
Cc1ccc(NS(=O)(=O)c2ccc(Cl)s2)cc1S(=O)(=O)N(C)C,"12.6 µM [rising, partial curve, poor fit]","15.8 µM [rising, partial curve]"
CCOc1ccccc1NC(=O)C1=C(C)NC(=O)NC1c1cccs1 (stereo not given),,"22.4 µM [falling, single point]"
Cc1cccc(NCc2ccccc2OCc2ccccc2F)c1,,"31.6 µM [rising, single point]"
COc1ccc(C(NC(C)=O)c2ccc3cccnc3c2O)c(OC)c1 (stereo not given),"7.08 µM [rising, partial curve]","7.94 µM [rising, partial curve]"
CC1(C)CC(=O)NC=C(c2ccccc2)C1,,"14.1 µM [rising, single point]"
O=C(COC(=O)CCC(=O)c1ccc(F)cc1)Nc1ccc(F)cc1F,,"7.08 µM [rising, full curve]"

# Exported as tab-separated lines: four of the compounds above.
Structure (SMILES)	AC50 [1]	AC50 [2]
O=C(c1ccccc1)N1CCN(Cc2c[nH]c3ccccc23)CC1		11.2 µM [rising, single point]
CCn1c2ccccc2c2cc(NC(=O)c3cccc([N+](=O)[O-])c3C)ccc21		14.1 µM [rising, single point]
CC(=O)/C(=N/Nc1cccc(C)c1)N1CCOCC1		35.5 µM [rising, single point]
CCOC(=O)N1CCN(C(=O)CSc2ccc3nnc(-c4cccnc4)n3n2)CC1		0.0447 µM [rising, full curve]
